The target in test [1] is T1, HSP47, endogenous in rat primary cortical neurons (rat (endogenous in primary cortical neurons)) (UniProt P29457).
T1 sequence: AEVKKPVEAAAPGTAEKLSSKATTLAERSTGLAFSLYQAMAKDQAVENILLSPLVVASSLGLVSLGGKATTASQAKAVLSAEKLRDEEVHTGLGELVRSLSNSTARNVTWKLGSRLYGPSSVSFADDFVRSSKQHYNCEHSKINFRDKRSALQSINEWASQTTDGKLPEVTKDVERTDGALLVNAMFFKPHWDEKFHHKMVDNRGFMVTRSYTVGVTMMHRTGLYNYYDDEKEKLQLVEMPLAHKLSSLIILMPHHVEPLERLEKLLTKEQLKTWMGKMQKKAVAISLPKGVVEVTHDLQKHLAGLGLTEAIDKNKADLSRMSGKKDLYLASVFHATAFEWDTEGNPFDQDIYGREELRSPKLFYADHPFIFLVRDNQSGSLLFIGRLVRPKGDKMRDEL
The test is described as follows: cross-linking + co-IP; primary rat cortical neurons (4 DIV) exposed to DSP (200 µg/ml in PBS, 10 min, room temperature) before lysis; lysates precipitated with control (MBP), anti-HSP47 or anti-APP (6E10) antibodies on Dynabeads protein G, blotted with anti-APP (C-Term) or anti-HSP47.

For test [2], the target named is APP, endogenous in rat primary cortical neurons (rat (endogenous in primary cortical neurons)). Described as above.

Results are given in words; binding and its absence hold for the method and conditions named. In cells and extracts the contact can be indirect. Binding calls can cover weak binding; strength is not graded here.

Drawing on article PMC3145648, this text covers binding for two molecules.

Regarding “APP, endogenous in rat primary cortical neurons”, the binding result in test [1] is given as “binds”.

B1: HSP47, endogenous in rat primary cortical neurons (protein, UniProt P29457 18-417)
chain: AEVKKPVEAAAPGTAEKLSSKATTLAERSTGLAFSLYQAMAKDQAVENILLSPLVVASSLGLVSLGGKATTASQAKAVLSAEKLRDEEVHTGLGELVRSLSNSTARNVTWKLGSRLYGPSSVSFADDFVRSSKQHYNCEHSKINFRDKRSALQSINEWASQTTDGKLPEVTKDVERTDGALLVNAMFFKPHWDEKFHHKMVDNRGFMVTRSYTVGVTMMHRTGLYNYYDDEKEKLQLVEMPLAHKLSSLIILMPHHVEPLERLEKLLTKEQLKTWMGKMQKKAVAISLPKGVVEVTHDLQKHLAGLGLTEAIDKNKADLSRMSGKKDLYLASVFHATAFEWDTEGNPFDQDIYGREELRSPKLFYADHPFIFLVRDNQSGSLLFIGRLVRPKGDKMRDEL
Turning to B1, the binding result in test [2] is “binds”.
